Data on one molecule can be found in publication PMC3818223, “A RhoC Biosensor Reveals Differences in the Activation Kinetics of RhoA and RhoC in Migrating Cells” (PLoS ONE, 2013).

By UniProt entry, the sequences of proteins in these tests, tags left out.
UniProt P08134: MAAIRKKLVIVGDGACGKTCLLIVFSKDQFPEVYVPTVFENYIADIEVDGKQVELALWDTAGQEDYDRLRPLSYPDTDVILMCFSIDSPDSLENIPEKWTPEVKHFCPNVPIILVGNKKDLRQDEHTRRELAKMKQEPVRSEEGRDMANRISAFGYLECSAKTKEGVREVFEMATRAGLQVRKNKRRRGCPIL

This assay has as its target RhoC, full length, wild type, as the C-terminal module of the RhoC FLARE.sc biosensor (UniProt P08134). As to the kind of experiment: FRET or BRET; intramolecular FRET of the single-chain biosensor (binding domain-mCerulean-linker-mVenus-RhoC); fluorometry of cold, live HEK293T cell suspensions in PBS 48 h after transfection, excitation 433 nm, emission 450-600 nm, FRET/CFP ratio.

These are yes or no findings as the source states them, for the method shown. In cells and extracts the contact can be indirect. Some results given as binding are weak or reduced against the parent protein; the word gives no strength.

B1: ROCK1 Rho binding domain (RBD, amino acids 905-1046), as the N-terminal module of the RhoC FLARE.sc biosensor (domain or fragment, UniProt Q13464 905-1046, looked up)
chain: ARGLLEEQYFELTQESKKAASRNRQEITDKDHTVSRLEEANSMLTKDIEILRRENEELTEKMKKAEEEYKLEKEEEISNLKAAFEKNINTERTLKTQAVNKLAEIMNRKDFKIDRKKANTQDLRKKEKENRKLQLELNQERE
notes: It is split from RhoC here so that the intramolecular pair can be written; Subcloned into pTriEX-HisMyc4 (Novagen), which may add His and Myc tags; source: HEK293T, transfected (Lipofectamine2000), in live cell suspension; not shown: monomeric Cerulean, C-terminal, kept
As for B1, the binding entry is recorded as “binds”.
